# ± gives the standard deviation of the averaged measurements. The list shows a part of the results.
# Key:
# Assay in all cases: NP40-soluble protein abundance relative to vehicle (solubility fold change) (ratio); higher = more soluble protein in presence of GTP
# [1] = target: T1, E7EQU1 and related entries (UniProt O15347)
# T1 sequence (whole entry): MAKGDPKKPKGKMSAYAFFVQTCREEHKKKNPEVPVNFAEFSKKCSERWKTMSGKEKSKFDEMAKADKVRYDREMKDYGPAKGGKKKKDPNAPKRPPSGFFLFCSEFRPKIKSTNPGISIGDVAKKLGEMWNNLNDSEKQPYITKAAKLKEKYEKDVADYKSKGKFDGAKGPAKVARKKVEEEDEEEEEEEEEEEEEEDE
# Outline: (§1)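 Each value is a fold change relative to the detergent-processed vehicle, calculated per replicate from vsn-normalised intensities. Jurkat crude lysate received eight concentrations (0.1 to 10 mM) for 10 min at room temperature and 3 min at 37 °C, then was solubilised in 0.8% NP40 with benzonase (60 min, 4 °C). The ultracentrifuged supernatant was TMT-labelled and run by LC-MS/MS in three independent experiments.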
# [2] = target: T2, E7ET89 and related entries (UniProt Q86UW9)
# T2 sequence (whole entry): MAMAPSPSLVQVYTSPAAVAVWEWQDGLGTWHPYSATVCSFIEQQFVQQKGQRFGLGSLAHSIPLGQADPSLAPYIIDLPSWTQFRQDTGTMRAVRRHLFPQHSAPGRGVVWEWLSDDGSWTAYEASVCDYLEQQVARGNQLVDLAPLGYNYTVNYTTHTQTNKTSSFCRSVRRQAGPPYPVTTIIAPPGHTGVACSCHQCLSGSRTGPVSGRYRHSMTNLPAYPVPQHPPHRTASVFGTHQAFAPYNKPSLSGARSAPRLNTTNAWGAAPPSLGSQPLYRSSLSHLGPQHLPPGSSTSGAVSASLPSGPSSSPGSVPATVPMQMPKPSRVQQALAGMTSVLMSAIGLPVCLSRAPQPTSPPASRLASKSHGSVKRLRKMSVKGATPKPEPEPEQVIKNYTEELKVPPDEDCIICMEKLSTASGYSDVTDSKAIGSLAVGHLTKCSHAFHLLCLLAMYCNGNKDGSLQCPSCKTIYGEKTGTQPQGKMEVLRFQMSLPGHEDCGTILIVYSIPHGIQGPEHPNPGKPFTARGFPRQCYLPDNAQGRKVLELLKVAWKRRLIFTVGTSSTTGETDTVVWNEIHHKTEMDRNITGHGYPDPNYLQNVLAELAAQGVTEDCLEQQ
# Outline: as §1
# [3] = target: T3, E9PF18 and related entries (UniProt Q16836)
# T3 sequence (whole entry): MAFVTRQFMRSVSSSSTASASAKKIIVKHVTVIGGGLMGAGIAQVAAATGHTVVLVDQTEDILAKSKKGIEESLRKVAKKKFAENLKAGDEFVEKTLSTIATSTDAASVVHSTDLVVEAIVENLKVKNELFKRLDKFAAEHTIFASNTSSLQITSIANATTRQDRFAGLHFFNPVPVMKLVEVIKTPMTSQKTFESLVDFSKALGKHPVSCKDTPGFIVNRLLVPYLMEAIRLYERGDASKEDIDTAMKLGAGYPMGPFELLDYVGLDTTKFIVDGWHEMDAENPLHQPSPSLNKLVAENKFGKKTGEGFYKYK
# Outline: as §1
# [4] = target: T4, E9PKP0 and related entries (UniProt Q8TDP1)
# T4 sequence (whole entry): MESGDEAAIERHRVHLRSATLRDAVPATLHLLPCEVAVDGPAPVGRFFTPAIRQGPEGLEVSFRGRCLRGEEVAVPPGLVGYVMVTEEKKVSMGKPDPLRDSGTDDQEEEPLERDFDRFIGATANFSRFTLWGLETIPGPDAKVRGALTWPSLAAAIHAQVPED
# Outline: as §1
compound,measurement,setting,value
Nc1nc2c(ncn2[C@@H]2O[C@H](COP(=O)(O)OP(=O)(O)OP(=O)(O)O)[C@@H](O)[C@H]2O)c(=O)[nH]1 [guanosine triphosphate],NP40-soluble protein abundance,[1]; concentration: 0.1mM,0.849 ± 0.046
same,NP40-soluble protein abundance,[1]; concentration: 0.5mM,0.867 ± 0.045
same,NP40-soluble protein abundance,[1]; concentration: 1mM,1.06 ± 0.064
same,NP40-soluble protein abundance,[1]; concentration: 2mM,1.06 ± 0.089
same,NP40-soluble protein abundance,[1]; concentration: 4mM,1.02 ± 0.052
same,NP40-soluble protein abundance,[1]; concentration: 6mM,1.11 ± 0.11
same,NP40-soluble protein abundance,[1]; concentration: 8mM,1.04 ± 0.12
same,NP40-soluble protein abundance,[1]; concentration: 10mM,1.29 ± 0.16
same,NP40-soluble protein abundance,[2]; concentration: 0.1mM,1.07 ± 0.043
same,NP40-soluble protein abundance,[2]; concentration: 0.5mM,1.02 ± 0.024
same,NP40-soluble protein abundance,[2]; concentration: 1mM,1.06 ± 0.04
same,NP40-soluble protein abundance,[2]; concentration: 2mM,1.08 ± 0.0058
same,NP40-soluble protein abundance,[2]; concentration: 4mM,1.1 ± 0.048
same,NP40-soluble protein abundance,[2]; concentration: 6mM,1.04 ± 0.12
same,NP40-soluble protein abundance,[2]; concentration: 8mM,1.03 ± 0.078
same,NP40-soluble protein abundance,[2]; concentration: 10mM,1.05 ± 0.024
same,NP40-soluble protein abundance,[3]; concentration: 0.1mM,0.929 ± 0.034
same,NP40-soluble protein abundance,[3]; concentration: 0.5mM,0.966 ± 0.021
same,NP40-soluble protein abundance,[3]; concentration: 1mM,0.905 ± 0.045
same,NP40-soluble protein abundance,[3]; concentration: 2mM,0.882 ± 0.058
same,NP40-soluble protein abundance,[3]; concentration: 4mM,0.828 ± 0.067
same,NP40-soluble protein abundance,[3]; concentration: 6mM,0.889 ± 0.067
same,NP40-soluble protein abundance,[3]; concentration: 8mM,0.848 ± 0.057
same,NP40-soluble protein abundance,[3]; concentration: 10mM,0.835 ± 0.056
same,NP40-soluble protein abundance,[4]; concentration: 0.1mM,0.969 ± 0.098
same,NP40-soluble protein abundance,[4]; concentration: 0.5mM,0.924 ± 0.069
same,NP40-soluble protein abundance,[4]; concentration: 1mM,0.938 ± 0.11
same,NP40-soluble protein abundance,[4]; concentration: 2mM,0.916 ± 0.052
same,NP40-soluble protein abundance,[4]; concentration: 4mM,0.923 ± 0.071
same,NP40-soluble protein abundance,[4]; concentration: 6mM,0.894 ± 0.072

# Part of the list above, tab-delimited.
compound	measurement	setting	value
Nc1nc2c(ncn2[C@@H]2O[C@H](COP(=O)(O)OP(=O)(O)OP(=O)(O)O)[C@@H](O)[C@H]2O)c(=O)[nH]1 [guanosine triphosphate]	NP40-soluble protein abundance	[4]; concentration: 2mM	0.916 ± 0.052
same	NP40-soluble protein abundance	[4]; concentration: 6mM	0.894 ± 0.072
